Measured values published in PMC3008709.
Results are given in words; binding and its absence hold for the method and conditions named. Binding seen in cells or lysates may run through a third protein. These calls come from enrichment with a bait or labelling near it, and not all partners need be listed. Where a sequence is shown, tags or fusion partners need not be part of it.

Target: T1, full-length human IKKβ (Inhibitor of NFκB Kinase β subunit), non-epitope-tagged (human) (UniProt O14920)
T1 sequence: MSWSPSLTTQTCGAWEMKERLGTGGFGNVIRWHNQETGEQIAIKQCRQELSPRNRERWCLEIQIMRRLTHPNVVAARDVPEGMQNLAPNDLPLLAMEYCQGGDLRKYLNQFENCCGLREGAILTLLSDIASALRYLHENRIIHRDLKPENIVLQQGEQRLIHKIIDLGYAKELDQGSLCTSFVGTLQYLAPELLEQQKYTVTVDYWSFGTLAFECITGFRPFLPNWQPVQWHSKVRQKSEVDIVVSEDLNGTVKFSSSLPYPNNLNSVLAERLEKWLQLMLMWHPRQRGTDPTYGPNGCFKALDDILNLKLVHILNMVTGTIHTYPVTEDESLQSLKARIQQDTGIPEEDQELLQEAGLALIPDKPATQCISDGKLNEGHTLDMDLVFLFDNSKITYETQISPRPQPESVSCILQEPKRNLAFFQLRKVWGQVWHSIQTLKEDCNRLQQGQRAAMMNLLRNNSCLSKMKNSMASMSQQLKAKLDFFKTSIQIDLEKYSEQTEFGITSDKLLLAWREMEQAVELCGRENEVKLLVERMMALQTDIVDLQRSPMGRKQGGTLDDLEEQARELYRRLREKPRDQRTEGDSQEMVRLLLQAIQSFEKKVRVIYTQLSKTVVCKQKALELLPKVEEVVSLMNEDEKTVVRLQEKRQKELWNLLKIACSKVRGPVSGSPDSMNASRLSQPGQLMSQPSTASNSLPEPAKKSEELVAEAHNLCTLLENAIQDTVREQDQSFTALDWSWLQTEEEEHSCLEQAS
Experiment: affinity purification with mass spectrometry; HEK293 cells transfected with FGFR4-K645E and IKKβ; IKKβ (H-4) immune complexes on Protein A-sepharose, trypsinized in 2 M urea; IMAC/nano-LC/ESI-MS; two independent samples

binding: binds
Substance: full-length constitutively active FGFR4-K645E (receptor)
